Measurements reported in PubChem BioAssay AID743121 (NCATS, 2013)
The deposit covers about 26,000 reagents; this is an unselected part. 167 of them (0.63%) count as active. 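Calls are per gene from RSA p-values that are not deposited; an individual active-marked siRNA can sensitise only weakly.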 A number with no mark means an inactive call. The numbers tell different reagents against one gene apart. Not all columns of the deposit are shown.

Aim: 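Genes whose silencing strengthens cell killing by camptothecin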 (primary screen)
System: MDA-MB-231 cells, a human breast cancer line
Reagent: single siRNA against human genes, 20 nM siRNA (0.8 pmol per well)
Time to read-out: 120 h (drug added 48 h after transfection, read 72 h later)
Challenge: camptothecin 20 nM (about EC30) for 72 h; vehicle 0.1% DMSO in parallel plates
Measurement: 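CellTiter-Glo ATP signal, scaled to control siRNA as percent viability; sensitisation given as log2 of untreated divided by camptothecin-treated viability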
Reading the numbers: log2 vehicle/camptothecin viability: higher = stronger sensitisation to camptothecin
Call rule: 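Each gene scored by redundant siRNA activity (RSA) over its individual siRNA ratios; a gene is called active at p < 0.001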

log2 vehicle/camptothecin viability | gene knocked down | siRNA no.
-0.381 | PZP (GeneID 5858) | 1
0.0269 | PZP (GeneID 5858) | 2
-0.106 | PZP (GeneID 5858) | 3
-0.0301 | ESAM (GeneID 90952) | 1
0.134 | ESAM (GeneID 90952) | 2
-0.382 | ESAM (GeneID 90952) | 3
0.542 | ESAM (GeneID 90952) | 4
0.971 (active) | TRAF6 (GeneID 7189) | 1
0.287 (active) | TRAF6 (GeneID 7189) | 2
0.222 (active) | TRAF6 (GeneID 7189) | 3
0.159 (active) | TRAF6 (GeneID 7189) | 4
0.294 | METTL21C (GeneID 196541) | 1
0.002 | METTL21C (GeneID 196541) | 2
0.218 | METTL21C (GeneID 196541) | 3
0.109 | METTL21C (GeneID 196541) | 4
-0.145 | SLC7A4 (GeneID 6545) | 1
0.0369 | SLC7A4 (GeneID 6545) | 2
-0.0566 | SLC7A4 (GeneID 6545) | 3
0.662 | SLC7A4 (GeneID 6545) | 4

Targets above whose gene name begins with M or m (4):
log2 vehicle/camptothecin viability | gene knocked down | siRNA no.
0.294 | METTL21C (GeneID 196541) | 1
0.002 | METTL21C (GeneID 196541) | 2
0.218 | METTL21C (GeneID 196541) | 3
0.109 | METTL21C (GeneID 196541) | 4

More records follow.
log2 vehicle/camptothecin viability | gene knocked down | siRNA no.
-0.112 | DTX1 (GeneID 1840) | 1
-0.271 | DTX1 (GeneID 1840) | 2
-0.708 | DTX1 (GeneID 1840) | 3
-0.126 | DTX1 (GeneID 1840) | 4
-0.0133 | SETDB1 (GeneID 9869) | 1
-0.234 | SETDB1 (GeneID 9869) | 2
-0.254 | SETDB1 (GeneID 9869) | 3
0.0973 | SETDB1 (GeneID 9869) | 4
-0.424 | TUBG2 (GeneID 27175) | 1
-0.461 | TUBG2 (GeneID 27175) | 2
-0.243 | TUBG2 (GeneID 27175) | 3
0.0603 | TUBG2 (GeneID 27175) | 4
